Data published in paper PMC3667844.
Results are given in words; binding and its absence hold for the method and conditions named. For some of these results: Binding seen in cells or lysates may run through a third protein. For some of these results: Sequences can lack the tags named with a protein.

Sequences of proteins named here, by UniProt entry; tags and fusion partners are left off. A change or cut given only in a name is not applied to a line headed by its entry.
UniProt P20340: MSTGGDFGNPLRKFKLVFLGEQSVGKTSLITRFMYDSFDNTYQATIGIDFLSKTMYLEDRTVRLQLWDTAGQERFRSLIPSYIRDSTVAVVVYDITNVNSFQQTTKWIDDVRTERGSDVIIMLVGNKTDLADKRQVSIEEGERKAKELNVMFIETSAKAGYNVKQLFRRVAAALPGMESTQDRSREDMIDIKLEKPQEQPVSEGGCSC
UniProt Q9NRW1: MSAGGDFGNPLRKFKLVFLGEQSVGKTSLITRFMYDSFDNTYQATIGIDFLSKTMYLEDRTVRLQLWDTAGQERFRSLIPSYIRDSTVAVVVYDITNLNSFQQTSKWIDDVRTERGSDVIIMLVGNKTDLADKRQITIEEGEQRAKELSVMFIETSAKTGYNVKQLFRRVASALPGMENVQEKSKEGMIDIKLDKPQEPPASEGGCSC

Assays:
pAS Rab6A Q72L [1] = target: pAS Rab6A Q72L (UniProt P20340); assay: two-hybrid; Y190 co-transformed with prey (pP6 or pACT) and bait (pAS) plasmids; β-galactosidase reporter activity on replica filters with X-gal (β-gal)
pAS Rab6A T27N [2] = target: pAS Rab6A T27N (UniProt P20340); assay: as above
pAS Rab6B Q72L [3] = target: pAS Rab6B Q72L (UniProt Q9NRW1); assay: as above
pAS Rab6B T27N [4] = target: pAS Rab6B T27N (UniProt Q9NRW1); assay: as above
pAS Rab6A Q72L [5] = target: pAS Rab6A Q72L (UniProt P20340); assay: two-hybrid; Y190 co-transformed with prey (pP6 or pACT) and bait (pAS) plasmids; growth on synthetic medium lacking leucine, tryptophan and histidine with 30 mM 3 AT (his3)
pAS Rab6A T27N [6] = target: pAS Rab6A T27N (UniProt P20340); assay: as above
pAS Rab6B Q72L [7] = target: pAS Rab6B Q72L (UniProt Q9NRW1); assay: as above
pAS Rab6B T27N [8] = target: pAS Rab6B T27N (UniProt Q9NRW1); assay: as above
pAS Rab6A wt [9] = target: pAS Rab6A wt (UniProt P20340); assay: two-hybrid; Y190 co-transformed with prey (pP6 or pACT) and bait (pAS) plasmids; β-galactosidase reporter activity on replica filters with X-gal (β-gal)
pAS Rab6B wt [10] = target: pAS Rab6B wt (UniProt Q9NRW1); assay: as above
pAS Rab6A wt [11] = target: pAS Rab6A wt (UniProt P20340); assay: two-hybrid; Y190 co-transformed with prey (pP6 or pACT) and bait (pAS) plasmids; growth on synthetic medium lacking leucine, tryptophan and histidine with 30 mM 3 AT (his3)
pAS Rab6B wt [12] = target: pAS Rab6B wt (UniProt Q9NRW1); assay: as above
ECFP Rab6A Q72L = ECFP Rab6A Q72L (UniProt P20340); assay: FRET or BRET; flow cytometry based FRET in co-transfected HeLa T-REx cells; ECFP and EYFP fusions, EYFP fluorescence (550 nm) from 405 nm excitation of double positive cells
ECFP Rab6B Q72L = ECFP Rab6B Q72L (UniProt Q9NRW1); assay: as above

Measured: binding

B1: pACT Mint1, full length conventional Mint1 (NM_001163.3) (protein, UniProt Q02410-1 1-837)
chain: MNHLEGSAEVEVTDEAAGGEVNESVEADLEHPEVEEEQQQPPQQQHYVGRHQRGRALEDLRAQLGQEEEERGECLARSASTESGFHNHTDTAEGDVIAAARDGYDAERAQDPEDESAYAVQYRPEAEEYTEQAEAEHAEATHRRALPNHLHFHSLEHEEAMNAAYSGYVYTHRLFHRGEDEPYSEPYADYGGLQEHVYEEIGDAPELDARDGLRLYEQERDEAAAYRQEALGARLHHYDERSDGESDSPEKEAEFAPYPRMDSYEQEEDIDQIVAEVKQSMSSQSLDKAAEDMPEAEQDLERPPTPAGGRPDSPGLQAPAGQQRAVGPAGGGEAGQRYSKEKRDAISLAIKDIKEAIEEVKTRTIRSPYTPDEPKEPIWVMRQDISPTRDCDDQRPMDGDSPSPGSSSPLGAESSSTSLHPSDPVEASTNKESRKSLASFPTYVEVPGPCDPEDLIDGIIFAANYLGSTQLLSDKTPSKNVRMMQAQEAVSRIKMAQKLAKSRKKAPEGESQPMTEVDLFISTQRIKVLNADTQETMMDHPLRTISYIADIGNIVVLMARRRMPRSNSQENVEASHPSQDGKRQYKMICHVFESEDAQLIAQSIGQAFSVAYQEFLRANGINPEDLSQKEYSDLLNTQDMYNDDLIHFSKSENCKDVFIEKQKGEILGVVIVESGWGSILPTVIIANMMHGGPAEKSGKLNIGDQIMSINGTSLVGLPLSTCQSIIKGLKNQSRVKLNIVRCPPVTTVLIRRPDLRYQLGFSVQNGIICSLMRGGIAERGGVRVGHRIIEINGQSVVATPHEKIVHILSNAVGEIHMKTMPAAMYRLLTAQEQPVYI
no binding: pAS Rab6A Q72L [1] | pAS Rab6A T27N [2] | pAS Rab6B Q72L [3] | pAS Rab6B T27N [4] | pAS Rab6A Q72L [5] | pAS Rab6A T27N [6] | pAS Rab6B Q72L [7] | pAS Rab6B T27N [8]

B2: pACT Mint1 PTB (aa 438–625) (domain or fragment, UniProt Q02410-1 438-625)
chain: ASFPTYVEVPGPCDPEDLIDGIIFAANYLGSTQLLSDKTPSKNVRMMQAQEAVSRIKMAQKLAKSRKKAPEGESQPMTEVDLFISTQRIKVLNADTQETMMDHPLRTISYIADIGNIVVLMARRRMPRSNSQENVEASHPSQDGKRQYKMICHVFESEDAQLIAQSIGQAFSVAYQEFLRANGINPED
no binding: pAS Rab6A Q72L [1] | pAS Rab6A T27N [2] | pAS Rab6A wt [9] | pAS Rab6B Q72L [3] | pAS Rab6B T27N [4] | pAS Rab6B wt [10] | pAS Rab6A Q72L [5] | pAS Rab6A T27N [6] | pAS Rab6A wt [11] | pAS Rab6B Q72L [7] | pAS Rab6B T27N [8] | pAS Rab6B wt [12]

B3: EYFP Mint1 PTB (domain or fragment, UniProt Q02410-1 438-625)
chain: B2 chain
no binding: ECFP Rab6A Q72L | ECFP Rab6B Q72L
